PubChem BioAssay AID1259405, NCATS, 2018

Assay: 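Mouse-designed siRNAs used to find CHO productivity engineering targets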 (primary screen)
Cell system: Chinese hamster CHO-K1 ovary cells with stable secreted eGFP expression
Reagent: single siRNA against mouse genes, 0.8 pmol siRNA per well (2 µl of 400 nM stock)
Duration: 3 days
Measurement: 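Per-well intracellular GFP measured by laser scanning cytometry, plus viability from ATP luminescence, each relative to plate median of non-targeting control wells, in %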
Reading the numbers: GFP, % of control: higher = more GFP per well, higher productivity; viability (ATP), % of control: higher = more viable cells (more ATP)
Call rule: 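a knock-down is called active if GFP reaches 120% or more of non-targeting control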
Shown is a random part of about 50,000 reagents. In the full data, about 4,000 (8%) got an active call. 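Mouse siRNA library applied to hamster cells; one well for each siRNA.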 The numbers tell different reagents against one gene apart.

Snrnp200 (GeneID 320632) #1 — GFP, % of control = 96.9; viability (ATP), % of control = 79.9; call = inactive
Snrnp200 (GeneID 320632) #2 — GFP, % of control = 115; viability (ATP), % of control = 90.2; call = inactive
Snrnp200 (GeneID 320632) #3 — GFP, % of control = 96.3; viability (ATP), % of control = 85.8; call = inactive
Frs2 (GeneID 327826) #1 — GFP, % of control = 78.4; viability (ATP), % of control = 72.9; call = inactive
Frs2 (GeneID 327826) #2 — GFP, % of control = 73.5; viability (ATP), % of control = 67.8; call = inactive
Frs2 (GeneID 327826) #3 — GFP, % of control = 62.6; viability (ATP), % of control = 76.2; call = inactive
Terf2 (GeneID 21750) #1 — GFP, % of control = 93; viability (ATP), % of control = 75.5; call = inactive
Terf2 (GeneID 21750) #2 — GFP, % of control = 82.7; viability (ATP), % of control = 79.3; call = inactive
Or5a1 (GeneID 258677) #1 — GFP, % of control = 104; viability (ATP), % of control = 62.4; call = inactive
Or5a1 (GeneID 258677) #2 — GFP, % of control = 113; viability (ATP), % of control = 84.3; call = inactive
Or5a1 (GeneID 258677) #3 — GFP, % of control = 64.3; viability (ATP), % of control = 45.1; call = inactive
Agr3 (GeneID 403205) #1 — GFP, % of control = 70.8; viability (ATP), % of control = 74.8; call = inactive
Agr3 (GeneID 403205) #2 — GFP, % of control = 133; viability (ATP), % of control = 57.5; call = active
Agr3 (GeneID 403205) #3 — GFP, % of control = 97; viability (ATP), % of control = 67.9; call = inactive
Lrch4 (GeneID 231798) #1 — GFP, % of control = 34.7; viability (ATP), % of control = 61.8; call = inactive
Lrch4 (GeneID 231798) #2 — GFP, % of control = 84.5; viability (ATP), % of control = 85.8; call = inactive
Lrch4 (GeneID 231798) #3 — GFP, % of control = 106; viability (ATP), % of control = 84.8; call = inactive
Tbxas1 (GeneID 21391) #1 — GFP, % of control = 86.6; viability (ATP), % of control = 69.5; call = inactive
Tbxas1 (GeneID 21391) #2 — GFP, % of control = 59.7; viability (ATP), % of control = 71; call = inactive
Tbxas1 (GeneID 21391) #3 — GFP, % of control = 76.8; viability (ATP), % of control = 60; call = inactive
Pycard (GeneID 66824) #1 — GFP, % of control = 73.4; viability (ATP), % of control = 46.8; call = inactive
Pycard (GeneID 66824) #2 — GFP, % of control = 71.4; viability (ATP), % of control = 77.3; call = inactive
Pycard (GeneID 66824) #3 — GFP, % of control = 79.8; viability (ATP), % of control = 94.4; call = inactive
Scn1b (GeneID 20266) #1 — GFP, % of control = 112; viability (ATP), % of control = 92.3; call = inactive
Scn1b (GeneID 20266) #2 — GFP, % of control = 76.7; viability (ATP), % of control = 63.2; call = inactive
Scn1b (GeneID 20266) #3 — GFP, % of control = 109; viability (ATP), % of control = 88; call = inactive
Mmp10 (GeneID 17384) #1 — GFP, % of control = 105; viability (ATP), % of control = 123; call = inactive
Mmp10 (GeneID 17384) #2 — GFP, % of control = 38.7; viability (ATP), % of control = 58.2; call = inactive
Ccl6 (GeneID 20305) #1 — GFP, % of control = 56.3; viability (ATP), % of control = 63.8; call = inactive
Ccl6 (GeneID 20305) #2 — GFP, % of control = 37.1; viability (ATP), % of control = 53.2; call = inactive
Ccl6 (GeneID 20305) #3 — GFP, % of control = 89.8; viability (ATP), % of control = 60.6; call = inactive
Kdelr3 (GeneID 105785) #1 — GFP, % of control = 93.5; viability (ATP), % of control = 99.2; call = inactive
Kdelr3 (GeneID 105785) #2 — GFP, % of control = 78; viability (ATP), % of control = 55.5; call = inactive
Ubr7 (GeneID 66622) #1 — GFP, % of control = 80.9; viability (ATP), % of control = 75.1; call = inactive
Ubr7 (GeneID 66622) #2 — GFP, % of control = 84.4; viability (ATP), % of control = 83.8; call = inactive
Ubr7 (GeneID 66622) #3 — GFP, % of control = 83.9; viability (ATP), % of control = 100; call = inactive
Eif4e3 (GeneID 66892) #1 — GFP, % of control = 111; viability (ATP), % of control = 95.8; call = inactive
Eif4e3 (GeneID 66892) #2 — GFP, % of control = 117; viability (ATP), % of control = 78.8; call = inactive
Eif4e3 (GeneID 66892) #3 — GFP, % of control = 211; viability (ATP), % of control = 63.7; call = active
Slamf9 (GeneID 98365) #1 — GFP, % of control = 39.7; viability (ATP), % of control = 26; call = inactive
Slamf9 (GeneID 98365) #2 — GFP, % of control = 71.1; viability (ATP), % of control = 91.3; call = inactive
Slamf9 (GeneID 98365) #3 — GFP, % of control = 12.6; viability (ATP), % of control = 17.6; call = inactive
